For some of these results: The name of at least one read-out is uncertain. Some of these results come from one statement about several compounds together.
Assays:
[1] = tested on: S. epidermidis (RP62A) biofilm; assay: Calgary Biofilm Device anti-biofilm activity; type: cell-based; details: triplicate runs listed singly
[2] = tested on: MRSA (ATCC 35391) biofilm; assay: Calgary Biofilm Device anti-biofilm activity; type: cell-based, Staphylococcus aureus; details: triplicate runs listed singly
[3] = tested on: MSSA (ATCC 25293) biofilm; assay: Calgary Biofilm Device anti-biofilm activity; type: cell-based, Staphylococcus aureus; details: triplicate runs listed singly
[4] = tested on: biofilms formed by staphylococcal bacteria; assay: Biofilm eradication, text summary over the biofilms tested; type: cell-based; details: summary in text over MRSA, S. epidermidis and MSSA biofilms

| Structure (SMILES) | MBEC = Minimum Biofilm Eradication Concentration [1] | MBEC = Minimum Biofilm Eradication Concentration [3] | MBIC = Minimum Biofilm Inhibitory Concentration [3] | further results |
| --- | --- | --- | --- | --- |
| CCCCCCCCCCN1C(=O)/C(=C(/C)O)C(=O)[C@@H]1C(C)C [Compound 13i, (S,Z)-1-decyl-3-(1-hydroxyethylidene)-5-isopropylpyrrolidine-2,4-dione] | 50 µg/mL | – | – | – |
| C/C(O)=C1\C(=O)[C@H](CC(C)C)N(Cc2ccc(-c3ccccc3)cc2)C1=O [Compound 13k, (S,Z)-1-(biphenyl-4-ylmethyl)-3-(1-hydroxyethylidene)-5-isobutylpyrrolidine-2,4-dione] | 100 µg/mL | – | – | – |
| CC(C)=CCCC(C)CCN1C(=O)/C(=C(/C)O)C(=O)[C@@H]1CC(C)C (stereo partly drawn) [Compound 13m, (5S,Z)-1-(3,7-dimethyloct-6-enyl)-3-(1-hydroxyethylidene)-5-isobutylpyrrolidine-2,4-dione] | 100 µg/mL | 100 µg/mL | 1.6 µg/mL | MBIC = Minimum Biofilm Inhibitory Concentration [2]: 0.4 µg/mL; MBIC = Minimum Biofilm Inhibitory Concentration [1]: 0.8 µg/mL |
| C/C(=C\C(=O)OCCCCCCCCC(=O)O)C[C@@H]1OC[C@H](C[C@@H]2O[C@H]2[C@@H](C)[C@H](C)O)[C@@H](O)[C@H]1O [Mupirocin, mupirocin, reference compound] | – | – | – | MBEC, concentrations that eradicate the biofilms [4]: > 400 µg/mL |
| CO[C@H]1/C=C/O[C@@]2(C)Oc3c(C)c(O)c4c(O)c(c(/C=N/N5CCN(C)CC5)c(O)c4c3C2=O)NC(=O)/C(C)=C\C=C\[C@H](C)[C@H](O)[C@@H](C)[C@@H](O)[C@@H](C)[C@H](OC(C)=O)[C@@H]1C [Rifampicin, rifampicin, reference compound] | – | 200 µg/mL | <0.2 µg/mL | – |

Reference: patent US8552208B2, “Analogs of tetramic acid” (University of Tennesseee Research Foundation, priority 2007, dated 2013)
